PubChem BioAssay AID1224830 – NIAID | 2016
Here is one part, drawn at random, of about 18,000 deposited reagents. In the full data, about 2,900 (16%) are marked active. 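Calls are made per well; low scores hint the gene aids the LPS response, high scores that it dampens it.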 Entries without a mark were called inactive. Repeated entries: four replicate wells of each siRNA pool. No sequences are given here.

- Aim: 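Host factors that control LPS-induced TNF expression in human macrophages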 (primary screen)
- Cell system: human THP-1 monocytic leukaemia cells, TNF dual-luciferase reporter clone, PMA-differentiated to macrophage-like cells
- Knock-down reagent: siRNA pool against human genes, 50 nM
- Time to read-out: LPS for 4 h, given about 3 days after siRNA transfection
- Treatment: bacterial LPS (TLR4 ligand), 10 ng/ml
- Detection: 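Ratio of firefly to renilla light, scaled to the plate median and expressed as a robust z-score per replicate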
- Scale: TNF reporter robust z-score: higher = stronger TNF reporter response to LPS
- Active means: 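Each well counts as active if its z-score is over 2.8 or under -1.5; controls are left without a call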

Silencing of CFAP263 (GeneID 29070) came out at: TNF reporter robust z-score -0.96.
For CFAP263 (GeneID 29070), the entry reads TNF reporter robust z-score -0.37.
Silencing of CFAP263 (GeneID 29070) gave: TNF reporter robust z-score 0.19.
For CFAP263 (GeneID 29070) the deposit lists TNF reporter robust z-score 0.05.
After knock-down of CCR6 (GeneID 1235) the results were TNF reporter robust z-score -0.57.
With knock-down of CCR6 (GeneID 1235) the results were TNF reporter robust z-score -0.26.
CCR6 (GeneID 1235) scored TNF reporter robust z-score -0.27.
With knock-down of CCR6 (GeneID 1235), the record shows TNF reporter robust z-score 0.46.
RXRA (GeneID 6256) scored TNF reporter robust z-score 0.86.
Depletion of RXRA (GeneID 6256) gave: TNF reporter robust z-score 0.71.
RXRA (GeneID 6256) scored TNF reporter robust z-score -0.1.
With knock-down of RXRA (GeneID 6256) the results were TNF reporter robust z-score 0.19.
AMACR (GeneID 23600) gave TNF reporter robust z-score -0.78.
Depletion of AMACR (GeneID 23600) gave: TNF reporter robust z-score -1.09.
For AMACR (GeneID 23600), the values are TNF reporter robust z-score -1.23.
For AMACR (GeneID 23600), the entry reads TNF reporter robust z-score -0.68.
PRND (GeneID 23627) scored TNF reporter robust z-score -2.11 (active).
PRND (GeneID 23627) scored TNF reporter robust z-score -2.06 (active).
Knock-down of PRND (GeneID 23627) gave: TNF reporter robust z-score -2.04 (active).
